Data reported in paper PMC7819943, “Rice protein-binding microarrays: a tool to detect cis-acting elements near promoter regions in rice”.
This is one part of the list.

Sequences of proteins named here, by UniProt entry; tags and fusion partners are left off.
UniProt Q0JBA9, entry or part of it: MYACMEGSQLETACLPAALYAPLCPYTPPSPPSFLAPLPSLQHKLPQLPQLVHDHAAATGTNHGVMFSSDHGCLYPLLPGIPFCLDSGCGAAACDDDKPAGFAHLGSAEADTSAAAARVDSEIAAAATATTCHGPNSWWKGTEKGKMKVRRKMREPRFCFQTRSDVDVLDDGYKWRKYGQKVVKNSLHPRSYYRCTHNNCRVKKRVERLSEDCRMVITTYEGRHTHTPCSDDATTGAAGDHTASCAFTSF

biological target: OsWRKY34 (Oryza sativa, UniProt Q0JBA9 1-250); assay: protein-binding microarray (RPBM); PBS, 2% BSA, 51.3 ng/ul salmon testes DNA, 50 uM zinc acetate, 200 nM TF, 25 C, 1 h; high values mean tight binding; conditions: protein: recombinant; tags: N-terminal polyhistidine and DsRed monomer fusion (pET32a); label: CyDye5-dUTP incorporated in the synthesized complementary strand; 3' TTTTT single-stranded linker to array surface; dsDNA, one strand shown
Procedure, shortened: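 Using Ni–NTA, transcription factors fused N-terminally to polyhistidine and DsRed were purified after expression in E. coli BL21-CodonPlus. These were incubated at 200 nM with a blocked, double-stranded custom Agilent array for 1 h at 25 °C in a buffer containing 50 µM zinc acetate, and the array was washed. The binding signal is per-feature fluorescence intensity (arbitrary units) on an Axon 4000B scanner.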

| Sequence | binding signal |
| --- | --- |
| TCAGTGTCAAACCGCTCCGATAGTGTTATATTTGCCGTGCCGGAGTCACCTAGTGCAG | 8700 fluorescence intensity (a.u.) |
| CTACTAGTAACTTGAAGTCGGGTGGGCTGGTTTCACCATACGGAGTCACCTAGTGCAG | 10500 fluorescence intensity (a.u.) |
| AACCAACTTAACGACCATTGCATGTAGTCATGTTCAGATTCGGAGTCACCTAGTGCAG | 8070 fluorescence intensity (a.u.) |
| GCTTCGTGTCATCTCGTCTCTGCATGGCAACCGAAAATTTCGGAGTCACCTAGTGCAG | 12200 fluorescence intensity (a.u.) |
| GCTATAGACGCCCTTTCATTTTTTTTATTTTATTATTTTTCGGAGTCACCTAGTGCAG | 8320 fluorescence intensity (a.u.) |
| TTTCACTTGCTTGTTTTTCATGTCCACACTTCCCAACTCACGGAGTCACCTAGTGCAG | 16600 fluorescence intensity (a.u.) |
| GTATGACTCCGACCTGCACACGTACAAATTTGTTTTCAACCGGAGTCACCTAGTGCAG | 9330 fluorescence intensity (a.u.) |
| CAACCTCCCGACCCGTTGCTGCCCTCTTCATTCGCTCGCTCGGAGTCACCTAGTGCAG | 9350 fluorescence intensity (a.u.) |
| GCGATTTCCTTGTGCCACTATCCTGGCTTGATGCGCAGTTCGGAGTCACCTAGTGCAG | 8110 fluorescence intensity (a.u.) |
| TCATCATGACCATTACGACAATTAGTACCTCAGTTTTTTACGGAGTCACCTAGTGCAG | 10800 fluorescence intensity (a.u.) |
| GTCCTCGTTTTTTTTTTCCTTCTCTTTTTCTTTTCCTTTTCGGAGTCACCTAGTGCAG | 9450 fluorescence intensity (a.u.) |
| AAATACTTTTGTTACTCTAATATGTTTATGTCGCTTCAGACGGAGTCACCTAGTGCAG | 8560 fluorescence intensity (a.u.) |
| ACCGTCTCATCTTCTTCTTCCTCCTCCTCTGATCTTCTCCCGGAGTCACCTAGTGCAG | 8220 fluorescence intensity (a.u.) |
| ATTTCTATTTGGACTCTTCTTTTCTTTTTCTTCGATTAATCGGAGTCACCTAGTGCAG | 10700 fluorescence intensity (a.u.) |
| ATATCCACCTCTCTAGATCTTTCTCGTCGCAAACGCCCTTCGGAGTCACCTAGTGCAG | 9990 fluorescence intensity (a.u.) |
| GCCACTAAGGAGAACGAGAGAGAAAGAGGGGAGGTGGGGTCGGAGTCACCTAGTGCAG | 8770 fluorescence intensity (a.u.) |
| CCGCTTCTCCGCCGTCCTTTTGCCAGGGCCACCGACACTACGGAGTCACCTAGTGCAG | 13100 fluorescence intensity (a.u.) |
| GCTTGTTGAATTTATGGCTGTACTATTGGTGAATTTATTACGGAGTCACCTAGTGCAG | 11700 fluorescence intensity (a.u.) |
| ATATTTCACTCTATTTTTATTGTATGTTGCACACTTTGATCGGAGTCACCTAGTGCAG | 8890 fluorescence intensity (a.u.) |
| TATCTTCTCCGTTTCCAGGCTTCCAGCCCACAACCTGACACGGAGTCACCTAGTGCAG | 8110 fluorescence intensity (a.u.) |
| TCCTCCTGTACGCTCGATCTCTCTTTTTCTCTCTCGCTATCGGAGTCACCTAGTGCAG | 13200 fluorescence intensity (a.u.) |
| TCCCCTCACTGACAAGTGGGCCACCAACCTGCATCCTGGCCGGAGTCACCTAGTGCAG | 8170 fluorescence intensity (a.u.) |
| TTTTTTTTGGTAATGCGTGGTATTTCTTGTTCGTGTAAAACGGAGTCACCTAGTGCAG | 9780 fluorescence intensity (a.u.) |
| TCACTTTCGGCGGCTACTCCTCTTGAGTCTTGACCGGTTGCGGAGTCACCTAGTGCAG | 8620 fluorescence intensity (a.u.) |
| GCTCCATCTCTCGTCTCGCGCTTCACTCCACATCTGTTTCCGGAGTCACCTAGTGCAG | 18300 fluorescence intensity (a.u.) |
| ACACACTATACACTACCCCATCCTACCCTACCCTACACTACGGAGTCACCTAGTGCAG | 8750 fluorescence intensity (a.u.) |
| TCCGATTTATTTGTCAAAATTGAGCGCTGTTTCGTTAGTTCGGAGTCACCTAGTGCAG | 9460 fluorescence intensity (a.u.) |

Two entries drawn at random from those above, as already listed:

| Sequence | binding signal |
| --- | --- |
| ATATTTCACTCTATTTTTATTGTATGTTGCACACTTTGATCGGAGTCACCTAGTGCAG | 8890 fluorescence intensity (a.u.) |
| ACACACTATACACTACCCCATCCTACCCTACCCTACACTACGGAGTCACCTAGTGCAG | 8750 fluorescence intensity (a.u.) |

Further records follow.

| Sequence | binding signal |
| --- | --- |
| CTTATCATCGACAGTTTCTTCTCGTTTCTGTCTCGTACGTCGGAGTCACCTAGTGCAG | 11900 fluorescence intensity (a.u.) |
| TGTCTTGGTCTTGTGGCGTTTATTGTTGCCGTCTGAGCGACGGAGTCACCTAGTGCAG | 11000 fluorescence intensity (a.u.) |
| CGTCTTTTTTCATTTTCCTATTGATCACTGAGGTTTTCGACGGAGTCACCTAGTGCAG | 10200 fluorescence intensity (a.u.) |
| AGAGTTCTCACTGTTACCTGTTGGTTATCTTTACATTACCCGGAGTCACCTAGTGCAG | 9110 fluorescence intensity (a.u.) |
| GCACTGGAAATTAATCATCGGCTTGTTCATCTCCACTGATCGGAGTCACCTAGTGCAG | 8640 fluorescence intensity (a.u.) |
| ACCGGATATTATTATTCTGCTAATTTATAGGGTTTTTTCACGGAGTCACCTAGTGCAG | 8820 fluorescence intensity (a.u.) |
| TGCACATAACATTTACCCTTTTTTTTCCCTTATCATATCACGGAGTCACCTAGTGCAG | 8510 fluorescence intensity (a.u.) |
| TTTTGTGTGTTGTTGTTTTTAATGTAAATTATCTTTCATACGGAGTCACCTAGTGCAG | 12200 fluorescence intensity (a.u.) |
| CCATCCACCTCTCTCGATCGTCTCATGAGCTAGCGCGCCCCGGAGTCACCTAGTGCAG | 8660 fluorescence intensity (a.u.) |
| GGTGGTGTTCATGAGCGATGACTCTGCCTGCCATTCACATCGGAGTCACCTAGTGCAG | 8550 fluorescence intensity (a.u.) |
| AATGCCACATGGACGTGACGTGTCCTTTACTTTTTTTTTCCGGAGTCACCTAGTGCAG | 11300 fluorescence intensity (a.u.) |
| CCCTTTTGTTTTTTGATGCAAATTCCCCTCCTTTTCTTTTCGGAGTCACCTAGTGCAG | 9740 fluorescence intensity (a.u.) |
| GTTTGACTTTTACACGTCCATATTAGAACTATAGAGTTATCGGAGTCACCTAGTGCAG | 8480 fluorescence intensity (a.u.) |
| CTCTACTATATATTCTGGCGCGAACCCGACTCCCTCCACACGGAGTCACCTAGTGCAG | 8320 fluorescence intensity (a.u.) |
| GTATCCTCCTTAAACTCGGTCTATTCTGGATAAACTTCCTCGGAGTCACCTAGTGCAG | 9110 fluorescence intensity (a.u.) |
| TTCAACGCCGCTCTCACTCTCACTATATTTATGAGCATTTCGGAGTCACCTAGTGCAG | 10700 fluorescence intensity (a.u.) |
| CGTCATCTTCCGTCTTAGCCTCACCGCTCCGTTCCGTTCCCGGAGTCACCTAGTGCAG | 10600 fluorescence intensity (a.u.) |
| GGAATTGGCCATAAGATTATTTTTCTCTGTATCTTTTTTCCGGAGTCACCTAGTGCAG | 10100 fluorescence intensity (a.u.) |
| CGCTCTCTGACATGTGGGGCCGGGTGGTTTGCATCAGAGGCGGAGTCACCTAGTGCAG | 8740 fluorescence intensity (a.u.) |
| GGTGGGCTTGCAAATCATAGTACTGAAGTGTAGAATTTTTCGGAGTCACCTAGTGCAG | 8180 fluorescence intensity (a.u.) |
| CACCGCCATCTCTCGCTCTCTCTCTCTCTCTCTCTCTCTCCGGAGTCACCTAGTGCAG | 10100 fluorescence intensity (a.u.) |
| TCTCCACCAGTGATGGCTGTGTCGGCCTCCTCGACCTACTCGGAGTCACCTAGTGCAG | 8740 fluorescence intensity (a.u.) |
| TCCTTGATATTTTTTCTGCCAGGTGTGGGGCCCGGGCCCACGGAGTCACCTAGTGCAG | 8190 fluorescence intensity (a.u.) |
| CTCGATTGCCGATTAATTAGTTGACCTCTTCGCTTATCCTCGGAGTCACCTAGTGCAG | 8340 fluorescence intensity (a.u.) |
| TCTAGGTTCTGTTCTATTCGGTTCTAGGTTATCATATTTTCGGAGTCACCTAGTGCAG | 12100 fluorescence intensity (a.u.) |
| ATTGCGACCATTATTATTCATTATTTTTCCGCGAGTCCAACGGAGTCACCTAGTGCAG | 9440 fluorescence intensity (a.u.) |
| GAATTCCCCGATCCTCGGTTAATCTCGCCGTGTTGCCGTCCGGAGTCACCTAGTGCAG | 11200 fluorescence intensity (a.u.) |
